PubChem BioAssay AID652243 – Drosophila RNAi Screening Center – 2013

Aim: 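Knock-downs that decrease or increase androgen receptor reporter signal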 (primary screen)
System: Drosophila S2R+ cells
Knock-down reagent: long dsRNA against Drosophila genes
Timing: 72 h (48 h, then 24 h hormone)
Challenge: synthetic androgen R1881 at 10 nM for 24 h
Read-out: 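Per-well raw luminescence of the androgen-driven firefly reporter and of the Renilla control, two replicates each, without normalisation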
Reading the numbers: firefly reporter light: higher = more light from androgen-responsive reporter; Renilla control light: higher = more constitutive control signal (cell number, transfection)
Call rule: 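Hit when the log firefly-to-Renilla ratio dropped or increased by a fixed fold versus the mean of GFP or LacZ controls across duplicate plates; lowering cut given as 1.5 and as 3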
Calls: active = hit: reporter lowered or raised; inactive = no hit
The deposit covers about 24,000 reagents; below is a random part of those with a known target gene and a result. Of all reagents, 246 (1%) got an active call. 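Plates not normalised; calls are printed but the firefly/Renilla ratio behind them is not deposited; fold cut for lowering reported inconsistently.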 Raw values vary from plate to plate and are shown uncorrected. Names joined by + are all predicted targets of the reagent. Not stated in the record: the amount of reagent.

target gene	dsRNA	firefly reporter light, replicate 1	firefly reporter light, replicate 2	Renilla control light, replicate 1	Renilla control light, replicate 2	outcome
Pkc98E	DRSC16791	89220	82433	6.99e5	4.50e5	inactive
Pkc98E	DRSC28311	5.52e5	7.09e5	1.25e6	1.34e6	active
Pkc98E	DRSC37000					inactive
CG41284 + CG42598	DRSC37841	8.71e5	1.09e6	1.40e6	1.97e6	inactive
fbp	DRSC02077	8.01e5	8.07e5	2.36e6	2.64e6	inactive
fbp	DRSC39301					inactive
Mt2	DRSC03374	1.80e5	1.33e5	7.98e5	1.25e6	inactive
Det	DRSC14489	2.05e5	2.46e5	2.47e6	2.88e6	inactive
CG13312	DRSC09983	1.69e5	2.50e5	2.38e6	2.54e6	inactive
CG13312	DRSC26729	3.86e5	2.67e5	5.02e5	4.91e5	inactive
CG14322	DRSC14801	36334	18212	5.75e5	5.32e5	inactive
CG3124	DRSC23062	6.77e5	8.42e5	8.21e5	1.02e6	inactive
CG3124	DRSC26288	3.81e5	2.75e5	6.30e5	6.82e5	inactive
Tmtc4	DRSC15702	1.44e5	1.90e5	2.19e6	2.62e6	inactive
Rab9	DRSC03281	2.24e5	2.36e5	2.01e6	2.21e6	inactive
Gbp2	DRSC06069	5.78e5	5.60e5	6.35e5	4.57e5	inactive
Mpcp1	DRSC07337	1.11e5	1.28e5	1.49e6	1.48e6	inactive
CG31007	DRSC14029	8.02e5	3.98e5	1.30e6	6.80e5	inactive
CG31007	DRSC28221	3.64e5	5.47e5	1.47e6	2.04e6	inactive
CG8326	DRSC20103	96936	76446	6.44e5	6.31e5	inactive
CG8326	DRSC28368	5.18e5	7.48e5	1.00e6	1.44e6	inactive
Cad87A	DRSC16161	59948	60532	5.24e5	4.87e5	inactive
Cad87A	DRSC29158	3.39e5	4.94e5	8.48e5	1.00e6	inactive
Akt	DRSC14108	52252	53690	2.63e5	2.92e5	inactive
Akt	DRSC36666					inactive
Akt	DRSC36667					inactive
CG15803	DRSC15121	89024	1.18e5	1.47e6	1.69e6	inactive
Hr83	DRSC12521	36403	42722	1.12e6	9.55e5	inactive
Hr83	DRSC25662	8.71e5	8.97e5	6.72e5	9.27e5	inactive
imd	DRSC05928	7.23e5	5.84e5	1.45e6	1.28e6	inactive
imd	DRSC26032	2.66e5	2.14e5	7.63e5	7.27e5	inactive
nSMase	DRSC08237	5.81e5	7.64e5	1.64e6	1.58e6	inactive
Muc14A	DRSC23264	8.56e5	6.98e5	1.02e6	6.78e5	inactive
Muc14A	DRSC38613	9.80e5	7.33e5	2.47e6	2.21e6	inactive
CG30033	DRSC24832	8.60e5	1.05e6	8.23e5	1.14e6	inactive
scny	DRSC10509	5.95e5	6.29e5	9.79e5	1.35e6	inactive
scny	DRSC23229	6.20e5	6.15e5	1.68e5	1.67e5	inactive
scny	DRSC27520	1.89e5	1.81e5	4.42e5	5.09e5	inactive
Cdc27	DRSC11112	7.71e5	8.02e5	1.41e6	1.14e6	inactive
Cdc27	DRSC23438	6.42e5	8.20e5	9.63e5	8.28e5	inactive
Cdc27	DRSC38968	4.92e5	5.54e5	1.24e6	1.47e6	inactive
shot	DRSC05459	95095	99458	2.07e5	1.13e5	inactive
shot	DRSC05460	3.02e5	3.28e5	4.82e5	5.81e5	inactive
shot	DRSC07682	1.18e6	1.13e6	1.37e6	1.33e6	inactive
shot	DRSC25070	3.61e5	2.00e5	7.80e5	4.51e5	inactive
Polr1B	DRSC00780	6.67e5	9.25e5	1.58e6	1.22e6	inactive
bug	DRSC07137	1.66e6	9.15e5	2.48e6	1.12e6	inactive
CG8501	DRSC07198	1.23e6	8.00e5	1.40e6	1.34e6	inactive
jef	DRSC06198	66508	1.12e5	1.70e6	1.70e6	inactive
jef	DRSC24815	9.89e5	7.85e5	1.30e6	1.09e6	inactive
CG34008	DRSC37919	8.39e5	7.60e5	1.34e6	1.66e6	inactive
h-cup + Rbp	DRSC14990	2.48e5	1.66e5	2.96e6	2.78e6	inactive
Naa20B	DRSC21442	7.87e5	8.74e5	2.45e6	2.32e6	inactive
Naa20B	DRSC27158	3.30e5	2.79e5	7.84e5	8.39e5	inactive
Naa20B	DRSC39090	2.85e5	1.86e5	1.16e6	9.74e5	inactive
Tspo + rempA	DRSC00533	6.21e5	8.09e5	1.75e6	1.02e6	inactive
bsd	DRSC05953	1.20e5	96917	5.47e5	4.46e5	inactive
bsd	DRSC36783					inactive
bsd	DRSC36784					inactive

Part of the list above, showing only “Renilla control light, replicate 1”:
Hr83 [DRSC25662]	6.72e5
imd [DRSC05928]	1.45e6
